Data taken from the supplement of paper PMC10849652.
This is one part of the list.

Sequences of proteins named here, by UniProt entry; tags and fusion partners are left off. A change or cut given only in a name is not applied to a line headed by its entry.
UniProt Q9GZP4: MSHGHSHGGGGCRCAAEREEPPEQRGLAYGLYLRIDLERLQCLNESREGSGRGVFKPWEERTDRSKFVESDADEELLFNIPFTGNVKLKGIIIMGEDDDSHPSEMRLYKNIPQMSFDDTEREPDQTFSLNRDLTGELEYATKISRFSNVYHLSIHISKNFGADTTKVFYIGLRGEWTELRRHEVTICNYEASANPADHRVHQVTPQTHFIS
UniProt P48739: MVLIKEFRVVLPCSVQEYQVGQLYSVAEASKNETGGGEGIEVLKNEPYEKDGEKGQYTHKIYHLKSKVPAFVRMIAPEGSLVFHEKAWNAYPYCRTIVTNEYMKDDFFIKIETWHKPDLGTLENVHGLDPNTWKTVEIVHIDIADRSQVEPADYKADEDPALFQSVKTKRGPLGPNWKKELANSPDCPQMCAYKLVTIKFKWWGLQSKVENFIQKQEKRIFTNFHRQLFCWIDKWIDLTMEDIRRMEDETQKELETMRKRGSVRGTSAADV
UniProt Q9NXJ5: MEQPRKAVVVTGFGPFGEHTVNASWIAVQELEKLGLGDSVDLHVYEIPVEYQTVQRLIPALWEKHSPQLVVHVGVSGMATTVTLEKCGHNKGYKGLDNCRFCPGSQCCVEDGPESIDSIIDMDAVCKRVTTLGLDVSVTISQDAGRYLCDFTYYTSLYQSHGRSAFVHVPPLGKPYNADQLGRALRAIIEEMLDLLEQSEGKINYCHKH
UniProt Q6P4A8: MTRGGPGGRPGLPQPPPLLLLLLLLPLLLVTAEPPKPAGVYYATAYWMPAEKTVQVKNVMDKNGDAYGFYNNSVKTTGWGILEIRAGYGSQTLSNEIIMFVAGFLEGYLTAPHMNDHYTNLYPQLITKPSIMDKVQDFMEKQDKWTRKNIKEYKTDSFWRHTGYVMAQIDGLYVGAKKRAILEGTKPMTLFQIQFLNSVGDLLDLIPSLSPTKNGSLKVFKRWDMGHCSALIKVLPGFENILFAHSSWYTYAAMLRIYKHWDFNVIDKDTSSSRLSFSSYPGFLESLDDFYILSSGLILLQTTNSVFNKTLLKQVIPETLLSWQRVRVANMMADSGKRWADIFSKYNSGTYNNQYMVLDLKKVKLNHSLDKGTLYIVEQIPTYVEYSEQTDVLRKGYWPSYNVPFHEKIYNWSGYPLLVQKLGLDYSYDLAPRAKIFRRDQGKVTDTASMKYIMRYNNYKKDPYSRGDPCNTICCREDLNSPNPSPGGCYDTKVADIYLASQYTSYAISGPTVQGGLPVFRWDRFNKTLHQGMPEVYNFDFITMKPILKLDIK
UniProt O43175: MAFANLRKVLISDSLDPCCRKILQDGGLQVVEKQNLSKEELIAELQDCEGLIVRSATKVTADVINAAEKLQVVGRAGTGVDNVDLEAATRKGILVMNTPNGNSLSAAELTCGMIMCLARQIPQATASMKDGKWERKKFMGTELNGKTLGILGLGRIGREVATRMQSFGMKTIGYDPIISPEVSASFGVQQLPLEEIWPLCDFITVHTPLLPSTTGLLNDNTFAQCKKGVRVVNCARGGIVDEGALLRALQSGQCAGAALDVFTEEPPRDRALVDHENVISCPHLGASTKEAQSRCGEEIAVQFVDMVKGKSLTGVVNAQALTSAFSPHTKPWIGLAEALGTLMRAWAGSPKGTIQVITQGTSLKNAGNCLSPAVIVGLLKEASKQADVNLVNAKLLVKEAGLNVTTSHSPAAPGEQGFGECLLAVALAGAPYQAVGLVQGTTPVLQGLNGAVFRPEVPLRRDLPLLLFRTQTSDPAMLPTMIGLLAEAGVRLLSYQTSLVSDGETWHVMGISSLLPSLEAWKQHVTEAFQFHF
UniProt Q9H8W4: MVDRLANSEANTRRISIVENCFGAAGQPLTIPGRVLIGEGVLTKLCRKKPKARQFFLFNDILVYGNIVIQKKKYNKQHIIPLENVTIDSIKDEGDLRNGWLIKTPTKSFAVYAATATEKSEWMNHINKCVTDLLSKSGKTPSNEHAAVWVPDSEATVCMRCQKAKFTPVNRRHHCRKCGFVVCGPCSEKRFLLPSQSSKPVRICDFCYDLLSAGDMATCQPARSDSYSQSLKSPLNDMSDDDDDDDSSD
UniProt O60331: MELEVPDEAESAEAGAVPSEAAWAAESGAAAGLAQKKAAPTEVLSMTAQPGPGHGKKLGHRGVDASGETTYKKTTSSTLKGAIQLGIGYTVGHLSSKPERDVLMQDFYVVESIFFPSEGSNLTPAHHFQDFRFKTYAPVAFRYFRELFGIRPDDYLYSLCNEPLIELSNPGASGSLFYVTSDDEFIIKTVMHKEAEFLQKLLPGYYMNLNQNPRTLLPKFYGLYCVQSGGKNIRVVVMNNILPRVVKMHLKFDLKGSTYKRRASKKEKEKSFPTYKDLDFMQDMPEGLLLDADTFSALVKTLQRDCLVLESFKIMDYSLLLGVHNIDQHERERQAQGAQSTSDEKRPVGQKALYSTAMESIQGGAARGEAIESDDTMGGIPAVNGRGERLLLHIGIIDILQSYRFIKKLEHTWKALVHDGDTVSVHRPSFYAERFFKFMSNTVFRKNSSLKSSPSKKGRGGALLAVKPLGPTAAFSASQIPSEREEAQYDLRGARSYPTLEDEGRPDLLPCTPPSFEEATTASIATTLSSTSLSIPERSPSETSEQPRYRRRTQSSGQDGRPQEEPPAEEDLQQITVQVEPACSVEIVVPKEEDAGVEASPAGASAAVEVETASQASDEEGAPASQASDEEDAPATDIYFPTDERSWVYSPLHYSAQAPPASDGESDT
UniProt P51178: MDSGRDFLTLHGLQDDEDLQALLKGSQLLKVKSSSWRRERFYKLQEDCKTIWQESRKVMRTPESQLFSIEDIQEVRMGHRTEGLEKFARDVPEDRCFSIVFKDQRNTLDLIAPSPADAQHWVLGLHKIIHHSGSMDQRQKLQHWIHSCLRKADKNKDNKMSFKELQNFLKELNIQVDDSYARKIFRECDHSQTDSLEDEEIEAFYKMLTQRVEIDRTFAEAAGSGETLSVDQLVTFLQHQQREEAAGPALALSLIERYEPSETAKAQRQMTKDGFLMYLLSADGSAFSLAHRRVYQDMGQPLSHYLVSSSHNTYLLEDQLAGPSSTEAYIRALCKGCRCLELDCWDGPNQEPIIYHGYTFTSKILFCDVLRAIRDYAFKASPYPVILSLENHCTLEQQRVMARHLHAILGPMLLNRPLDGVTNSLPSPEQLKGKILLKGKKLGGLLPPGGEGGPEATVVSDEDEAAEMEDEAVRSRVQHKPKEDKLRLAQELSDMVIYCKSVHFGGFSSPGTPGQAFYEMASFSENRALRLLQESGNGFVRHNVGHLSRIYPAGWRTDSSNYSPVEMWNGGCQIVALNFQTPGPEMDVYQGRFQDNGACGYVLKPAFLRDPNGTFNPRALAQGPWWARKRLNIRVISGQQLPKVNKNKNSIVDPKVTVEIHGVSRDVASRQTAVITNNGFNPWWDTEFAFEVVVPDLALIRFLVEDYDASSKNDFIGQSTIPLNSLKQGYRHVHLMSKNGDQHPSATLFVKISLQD
UniProt P42338: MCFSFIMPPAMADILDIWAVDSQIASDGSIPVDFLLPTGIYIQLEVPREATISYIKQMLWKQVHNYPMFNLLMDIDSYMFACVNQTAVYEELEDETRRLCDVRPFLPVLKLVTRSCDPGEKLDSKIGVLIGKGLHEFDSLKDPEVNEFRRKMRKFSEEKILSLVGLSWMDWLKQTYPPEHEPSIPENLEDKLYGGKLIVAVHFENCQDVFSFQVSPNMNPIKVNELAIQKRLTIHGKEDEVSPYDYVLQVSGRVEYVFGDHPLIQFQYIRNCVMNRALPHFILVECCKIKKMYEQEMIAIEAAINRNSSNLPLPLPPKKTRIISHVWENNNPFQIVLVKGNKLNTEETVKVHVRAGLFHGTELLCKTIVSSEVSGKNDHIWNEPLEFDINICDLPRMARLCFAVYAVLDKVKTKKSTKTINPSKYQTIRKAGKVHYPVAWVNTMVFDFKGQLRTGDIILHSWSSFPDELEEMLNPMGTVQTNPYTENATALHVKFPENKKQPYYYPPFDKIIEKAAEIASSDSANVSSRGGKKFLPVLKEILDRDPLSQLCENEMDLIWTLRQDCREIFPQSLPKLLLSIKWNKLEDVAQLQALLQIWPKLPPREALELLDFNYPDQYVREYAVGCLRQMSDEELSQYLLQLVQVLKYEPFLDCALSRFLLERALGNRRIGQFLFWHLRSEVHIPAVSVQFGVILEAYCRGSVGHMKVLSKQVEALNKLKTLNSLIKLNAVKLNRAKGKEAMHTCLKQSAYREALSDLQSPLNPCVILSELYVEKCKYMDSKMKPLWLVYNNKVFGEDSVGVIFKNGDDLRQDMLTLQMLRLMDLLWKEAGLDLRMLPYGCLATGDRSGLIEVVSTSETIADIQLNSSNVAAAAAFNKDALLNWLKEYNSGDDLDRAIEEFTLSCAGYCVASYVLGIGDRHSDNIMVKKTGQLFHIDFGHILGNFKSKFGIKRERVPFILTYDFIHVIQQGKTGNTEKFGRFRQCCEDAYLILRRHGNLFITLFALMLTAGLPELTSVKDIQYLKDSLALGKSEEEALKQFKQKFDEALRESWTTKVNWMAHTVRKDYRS
UniProt P48736: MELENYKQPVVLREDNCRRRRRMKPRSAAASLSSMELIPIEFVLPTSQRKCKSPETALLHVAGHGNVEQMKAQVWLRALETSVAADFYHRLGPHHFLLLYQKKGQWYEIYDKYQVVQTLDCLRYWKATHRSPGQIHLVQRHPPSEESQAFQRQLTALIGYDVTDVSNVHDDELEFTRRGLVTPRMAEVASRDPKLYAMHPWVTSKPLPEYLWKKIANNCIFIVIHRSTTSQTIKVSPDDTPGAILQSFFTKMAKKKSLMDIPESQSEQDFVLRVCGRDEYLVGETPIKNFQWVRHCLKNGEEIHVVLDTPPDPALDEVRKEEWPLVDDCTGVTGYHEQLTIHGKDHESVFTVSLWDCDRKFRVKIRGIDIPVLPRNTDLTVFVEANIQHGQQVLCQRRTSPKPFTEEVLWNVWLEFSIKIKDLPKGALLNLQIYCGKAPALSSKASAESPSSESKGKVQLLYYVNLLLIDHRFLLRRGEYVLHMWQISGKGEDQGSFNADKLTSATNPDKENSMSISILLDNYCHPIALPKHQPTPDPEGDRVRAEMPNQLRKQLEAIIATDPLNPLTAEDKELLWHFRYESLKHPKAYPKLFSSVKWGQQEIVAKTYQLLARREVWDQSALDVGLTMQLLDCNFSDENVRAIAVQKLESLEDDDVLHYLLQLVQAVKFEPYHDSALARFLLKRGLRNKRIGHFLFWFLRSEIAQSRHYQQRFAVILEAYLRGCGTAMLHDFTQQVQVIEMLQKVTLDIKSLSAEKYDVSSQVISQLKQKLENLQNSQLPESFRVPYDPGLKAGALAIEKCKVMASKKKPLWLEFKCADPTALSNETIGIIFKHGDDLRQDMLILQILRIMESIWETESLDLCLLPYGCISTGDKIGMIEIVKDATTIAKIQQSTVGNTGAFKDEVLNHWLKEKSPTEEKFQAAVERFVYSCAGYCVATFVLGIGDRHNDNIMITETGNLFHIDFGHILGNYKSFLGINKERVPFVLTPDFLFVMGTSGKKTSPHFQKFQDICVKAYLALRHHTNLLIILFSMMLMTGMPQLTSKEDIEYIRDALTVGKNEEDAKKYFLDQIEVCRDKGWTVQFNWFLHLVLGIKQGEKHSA
UniProt O75928, whole entry, looked up: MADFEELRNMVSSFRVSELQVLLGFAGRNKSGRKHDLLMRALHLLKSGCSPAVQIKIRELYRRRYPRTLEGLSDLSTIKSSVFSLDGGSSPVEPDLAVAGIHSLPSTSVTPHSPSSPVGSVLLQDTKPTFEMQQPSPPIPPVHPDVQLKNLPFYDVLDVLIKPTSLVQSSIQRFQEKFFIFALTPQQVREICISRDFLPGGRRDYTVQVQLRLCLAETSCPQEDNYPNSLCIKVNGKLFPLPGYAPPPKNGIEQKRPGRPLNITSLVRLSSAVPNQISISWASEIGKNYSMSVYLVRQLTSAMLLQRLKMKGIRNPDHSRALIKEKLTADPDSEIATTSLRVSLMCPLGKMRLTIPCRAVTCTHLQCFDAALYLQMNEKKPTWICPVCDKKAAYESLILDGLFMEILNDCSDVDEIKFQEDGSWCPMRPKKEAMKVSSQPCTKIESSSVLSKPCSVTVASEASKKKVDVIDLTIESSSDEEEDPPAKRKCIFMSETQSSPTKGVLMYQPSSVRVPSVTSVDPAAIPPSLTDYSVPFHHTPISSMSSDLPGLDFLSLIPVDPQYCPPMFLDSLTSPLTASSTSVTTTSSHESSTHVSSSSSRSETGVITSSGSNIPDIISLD
UniProt P11309, whole entry, looked up: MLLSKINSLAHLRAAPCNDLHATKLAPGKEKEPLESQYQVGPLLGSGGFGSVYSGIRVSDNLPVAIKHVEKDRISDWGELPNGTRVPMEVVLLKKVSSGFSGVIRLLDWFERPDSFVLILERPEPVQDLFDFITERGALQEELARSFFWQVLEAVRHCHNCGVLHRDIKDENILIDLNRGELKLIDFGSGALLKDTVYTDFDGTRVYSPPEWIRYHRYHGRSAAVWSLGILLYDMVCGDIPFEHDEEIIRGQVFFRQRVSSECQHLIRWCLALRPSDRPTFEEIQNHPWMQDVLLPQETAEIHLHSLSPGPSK

Legend:
Test in all cases: log2 fold change, soluble protein after heating vs DMSO (PISA); higher = thermal stabilisation; K562 lysate, 10 uM; active = over 0.2 and 3.5 SD of the protein, either way, in both replicates (recomputed)
nilotinib = compound: Cc1cn(-c2cc(NC(=O)c3ccc(C)c(Nc4nccc(-c5cccnc5)n4)c3)cc(C(F)(F)F)c2)cn1 [nilotinib]
Procedure, shortened: (§1)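 Following dounce homogenisation of K562 pellets in PBS pH 7.4 with 1 mM MgCl2, crude extract at 1 mg/mL protein was incubated for 30 min with 10 μM compound. Aliquots were then heated for 3 min over 48°C-58°C and pooled, NP-40 was added to 0.5% at 4°C, and soluble protein was recovered as the supernatant at 21,000xg for 90 min. Channel-sum-equalised TMTpro 16plex LC-MS/MS quantified this protein. Each value, from duplicates, is a log-two fold change in thermal stability relative to solvent controls.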

[1] = compound: Cc1nc(Nc2n[nH]c3c2CN(C(=O)N[C@H](CN(C)C)c2ccccc2)C3(C)C)c2sccc2n1
Procedure, shortened: as §1

dasatinib = compound: Cc1nc(Nc2ncc(C(=O)Nc3c(C)cccc3Cl)s2)cc(N2CCN(CCO)CC2)n1 [dasatinib]
Procedure, shortened: as §1

[2] = compound: Cc1ncc(-c2ccnc(Nc3ccc(S(C)(=O)=O)cc3)n2)n1C(C)C
Procedure, shortened: as §1

[3] = compound: Cn1cc(-c2ccc3c(c2)CCN3C(=O)Cc2cccc(C(F)(F)F)c2)c2c(N)ncnc21
Procedure, shortened: as §1

quisinostat = compound: Cn1cc(CNCC2CCN(c3ncc(C(=O)NO)cn3)CC2)c2ccccc21 [quisinostat]
Procedure, shortened: as §1

tipifarnib = compound: Cn1cncc1[C@@](N)(c1ccc(Cl)cc1)c1ccc2c(c1)c(-c1cccc(Cl)c1)cc(=O)n2C [tipifarnib]
Procedure, shortened: as §1

[4] = compound: NC(=O)Nc1cc(-c2cccc(F)c2)sc1C(=O)N[C@H]1CCCNC1
Procedure, shortened: as §1

[5] = compound: NC(=O)c1cnc(N[C@@H]2CCCC[C@@H]2N)nc1Nc1cccc(-n2nccn2)c1
Procedure, shortened: as §1

[6] = compound: NC1(c2ccc(-c3nc4ccn5c(=O)[nH]nc5c4cc3-c3ccccc3)cc2)CCC1
Procedure, shortened: as §1

[7] = compound: NCC(=O)Nc1ccc(-n2nc(C(F)(F)F)cc2-c2ccc3c(ccc4ccccc43)c2)cc1
Procedure, shortened: as §1

vorinostat = compound: O=C(CCCCCCC(=O)Nc1ccccc1)NO [vorinostat]
Procedure, shortened: as §1

silmitasertib = compound: O=C(O)c1ccc2c(c1)nc(Nc1cccc(Cl)c1)c1ccncc12 [silmitasertib]
Procedure, shortened: as §1

[8] = compound: O=C1NC(=O)C(c2cnc3ccccn23)=C1c1cn2c3c(cc(F)cc13)CN(C(=O)N1CCCCC1)CC2
Procedure, shortened: as §1

entospletinib = compound: c1cn2cc(-c3ccc4cn[nH]c4c3)nc(Nc3ccc(N4CCOCC4)cc3)c2n1 [entospletinib]
Procedure, shortened: as §1

Measured: log2 fold change

PITHD1 (UniProt Q9GZP4)
inactive: nilotinib 0.021 | [1] 0.017 | dasatinib 0.016 | [2] 0.036 | [3] -0.044 | quisinostat -0.076 | tipifarnib 0.001 | [4] 0.017 | [5] -0.012 | [6] 0.001 | [7] 0.041 | vorinostat 0.101 | silmitasertib -0.031 | [8] 0.05 | entospletinib -0.049

PIEZO1 (UniProt Q92508)
inactive: nilotinib 0.006 | [1] -0.024 | dasatinib 0.015 | [2] 0.001 | [3] 0.039 | quisinostat -0.019 | tipifarnib 0.008 | [4] -0.004 | [5] -0.046 | [6] 0.035 | [7] 0.023 | vorinostat 0.09 | silmitasertib 0.016 | [8] 0.001 | entospletinib -0.015

PIK3R2 (UniProt O00459)
inactive: nilotinib 0.007 | [1] -0.006 | dasatinib -0.023 | [2] 0.003 | [3] -0.008 | quisinostat -0.04 | tipifarnib -0.001 | [4] 0.031 | [5] 0.017 | [6] 0.263 | [7] -0.007 | vorinostat -0.245 | silmitasertib 0.201 | [8] -0.029 | entospletinib -0.092

PITPNB isoform 3 (UniProt P48739)
inactive: nilotinib 0.012 | [1] 0.012 | dasatinib 0.053 | [2] -0.022 | [3] -0.019 | quisinostat 0.049 | tipifarnib 0.007 | [4] -0.026 | [5] -0.005 | [6] -0.004 | [7] -0.015 | vorinostat 0.099 | silmitasertib 0.015 | [8] -0.013 | entospletinib 0.051

PGPEP1 (UniProt Q9NXJ5)
inactive: nilotinib 0.018 | [1] 0.019 | dasatinib -0.067 | [2] 0.07 | [3] 0.011 | quisinostat 0.041 | tipifarnib -0.006 | [4] -0.033 | [5] -0.03 | [6] 0.033 | [7] 0 | silmitasertib 0.009 | [8] 0.012 | entospletinib -0.049
active: vorinostat -0.526

PLBD1 (UniProt Q6P4A8)
inactive: nilotinib -0.042 | [1] 0 | dasatinib 0.041 | [2] -0.069 | [3] -0.015 | quisinostat -0.043 | tipifarnib -0.058 | [4] 0.019 | [5] -0.029 | [6] 0.004 | [7] -0.027 | vorinostat 0.123 | silmitasertib -0.062 | [8] -0.035 | entospletinib -0.08

PHGDH (UniProt O43175)
active: vorinostat -0.939
inactive: nilotinib 0.013 | [1] -0.025 | dasatinib -0.077 | [2] 0.005 | [3] 0.021 | quisinostat -0.032 | tipifarnib 0.018 | [4] -0.032 | [5] 0.006 | [6] 0.054 | [7] 0.023 | silmitasertib 0.031 | [8] 0.028 | entospletinib 0.016

PLEKHF2 (UniProt Q9H8W4)
inactive: nilotinib -0.03 | [1] 0.005 | dasatinib -0.068 | [2] 0.073 | [3] -0.086 | quisinostat -0.092 | tipifarnib 0.005 | [4] -0.013 | [5] -0.024 | [6] 0.038 | [7] -0.033 | vorinostat -0.107 | silmitasertib -0.028 | [8] -0.016 | entospletinib 0

2 neighbouring records out of the list so far, quoted:
PGPEP1 (UniProt Q9NXJ5)
inactive: nilotinib 0.018 | [1] 0.019 | dasatinib -0.067 | [2] 0.07 | [3] 0.011 | quisinostat 0.041 | tipifarnib -0.006 | [4] -0.033 | [5] -0.03 | [6] 0.033 | [7] 0 | silmitasertib 0.009 | [8] 0.012 | entospletinib -0.049
active: vorinostat -0.526

PLBD1 (UniProt Q6P4A8)
inactive: nilotinib -0.042 | [1] 0 | dasatinib 0.041 | [2] -0.069 | [3] -0.015 | quisinostat -0.043 | tipifarnib -0.058 | [4] 0.019 | [5] -0.029 | [6] 0.004 | [7] -0.027 | vorinostat 0.123 | silmitasertib -0.062 | [8] -0.035 | entospletinib -0.08

Carrying on.

PIP5K1C isoform 3 (UniProt O60331)
inactive: nilotinib -0.254 | [1] 0.052 | dasatinib 0.058 | [2] -0.088 | [3] -0.011 | quisinostat -0.126 | tipifarnib 0.015 | [4] 0.024 | [5] 0.002 | [6] -0.04 | vorinostat -0.1 | silmitasertib 0.087 | [8] 0.086 | entospletinib 0.27

PLCD1 isoform 2 (UniProt P51178)
inactive: nilotinib 0.004 | [1] -0.021 | dasatinib -0.014 | [2] 0.014 | [3] 0.021 | quisinostat -0.039 | tipifarnib 0.005 | [4] -0.023 | [5] 0.014 | [6] -0.023 | [7] 0.018 | vorinostat -0.119 | silmitasertib 0.025 | [8] -0.01 | entospletinib -0.043

PIK3CB (UniProt P42338)
inactive: nilotinib 0.015 | [1] 0.021 | dasatinib -0.072 | [2] 0.094 | [3] 0.055 | quisinostat -0.05 | tipifarnib -0.032 | [4] 0.053 | [5] 0.015 | [7] -0.041 | vorinostat -0.395 | silmitasertib 0.321 | [8] -0.046 | entospletinib 0.038
active: [6] 0.44

PHLDB1 (UniProt Q86UU1)
active: vorinostat -0.357
inactive: nilotinib -0.035 | [1] -0.012 | dasatinib 0.002 | [2] -0.006 | [3] -0.046 | quisinostat -0.243 | tipifarnib -0.003 | [4] 0.028 | [5] -0.036 | [6] 0.004 | [7] 0.022 | silmitasertib 0.012 | [8] 0.128 | entospletinib 0.008

PIGK (UniProt Q92643)
inactive: nilotinib -0.017 | [1] 0.051 | dasatinib 0.007 | [2] -0.023 | [3] 0.004 | quisinostat 0.067 | tipifarnib -0.016 | [4] 0.016 | [5] 0.027 | [6] 0.002 | [7] 0.003 | vorinostat 0.134 | silmitasertib 0.03 | [8] -0.002 | entospletinib -0.011

PI4K2B (UniProt Q8TCG2)
inactive: nilotinib -0.037 | [1] 0.021 | dasatinib -0.021 | [2] 0.069 | [3] 0.092 | quisinostat 0.063 | tipifarnib -0.036 | [4] 0.076 | [6] 0.009 | [7] -0.038 | vorinostat -0.054 | silmitasertib 0.041 | [8] 0.011 | entospletinib 0.014
active: [5] 0.689

PLA2G4B isoform 6 (UniProt P0C869)
active: quisinostat -0.671
inactive: nilotinib -0.177 | [1] 0.259 | dasatinib -0.1 | [2] -0.326 | [3] -0.047 | tipifarnib 0.022 | [4] 0.158 | [5] 0.006 | [6] -0.073 | [7] -0.008 | vorinostat 0.002 | silmitasertib -0.017 | [8] 0.264 | entospletinib 0.06

PIK3CG (UniProt P48736)
inactive: nilotinib 0.004 | [1] -0.022 | [2] 0.079 | [3] 0.097 | quisinostat -0.139 | tipifarnib 0.003 | [4] 0.013 | [6] -0.017 | [7] -0.111 | vorinostat -0.037 | silmitasertib 0.04 | [8] -0.027 | entospletinib -0.073

PIAS2 (UniProt O75928)
inactive: nilotinib -0.019 | [1] -0.005 | dasatinib -0.097 | [2] 0.068 | [3] -0.026 | quisinostat 0.061 | tipifarnib -0.086 | [4] 0.004 | [6] 0.025 | silmitasertib -0.091 | [8] -0.054 | entospletinib 0.01
active: [7] 0.469 | vorinostat -0.334

PLAU (UniProt P00749)
inactive: nilotinib -0.049 | [1] -0.036 | dasatinib 0.298 | [2] 0.091 | [3] -0.17 | tipifarnib -0.113 | [5] -0.21 | [6] 0.009 | vorinostat 0.235 | silmitasertib -0.052 | entospletinib 0.072

PIK3R3 (UniProt Q92569)
inactive: nilotinib -0.09 | [1] 0.076 | [2] -0.159 | tipifarnib 0.034

PKN3 (UniProt Q6P5Z2)
inactive: nilotinib 0.018 | [1] -0.056 | dasatinib -0.079 | [2] 0.031 | [3] 0.031 | quisinostat 0.006 | tipifarnib 0.213 | [4] -0.097 | [6] 0.053 | [7] -0.119 | vorinostat -0.047 | silmitasertib -0.028 | [8] -0.117 | entospletinib 0.148

PHOX2B (UniProt Q99453)
inactive: nilotinib -0.142 | [1] 0.039 | dasatinib -0.605 | [2] -0.255 | [3] 0.224 | quisinostat -0.4 | tipifarnib -0.16 | [4] -0.031 | [7] 0.045 | [8] -0.131 | entospletinib -0.058

PIM1 isoform 2 (UniProt P11309)
inactive: nilotinib 0.059 | [1] -0.025 | dasatinib -0.033 | [2] 0.063 | [3] 0.112 | quisinostat -0.085 | tipifarnib 0.061 | [4] 0.038 | [6] -0.146 | [7] 0.098 | vorinostat -0.188 | silmitasertib 0.212 | [8] 0.019 | entospletinib 0.008
